Protein sequences, listed by entry. Tags and fused reporters are not part of them.
UniProt P63151: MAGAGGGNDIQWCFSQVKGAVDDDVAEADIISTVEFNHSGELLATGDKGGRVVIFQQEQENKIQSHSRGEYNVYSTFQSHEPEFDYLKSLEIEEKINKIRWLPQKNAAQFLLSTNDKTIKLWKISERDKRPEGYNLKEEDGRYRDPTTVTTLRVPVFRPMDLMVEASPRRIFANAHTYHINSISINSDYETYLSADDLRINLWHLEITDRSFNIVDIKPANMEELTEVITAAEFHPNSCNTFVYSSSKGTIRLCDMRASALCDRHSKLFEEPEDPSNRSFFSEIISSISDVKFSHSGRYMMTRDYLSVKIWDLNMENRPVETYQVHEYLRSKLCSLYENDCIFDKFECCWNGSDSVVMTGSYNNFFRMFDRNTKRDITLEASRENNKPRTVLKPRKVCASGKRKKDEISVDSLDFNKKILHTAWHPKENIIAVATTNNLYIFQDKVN
UniProt P49790: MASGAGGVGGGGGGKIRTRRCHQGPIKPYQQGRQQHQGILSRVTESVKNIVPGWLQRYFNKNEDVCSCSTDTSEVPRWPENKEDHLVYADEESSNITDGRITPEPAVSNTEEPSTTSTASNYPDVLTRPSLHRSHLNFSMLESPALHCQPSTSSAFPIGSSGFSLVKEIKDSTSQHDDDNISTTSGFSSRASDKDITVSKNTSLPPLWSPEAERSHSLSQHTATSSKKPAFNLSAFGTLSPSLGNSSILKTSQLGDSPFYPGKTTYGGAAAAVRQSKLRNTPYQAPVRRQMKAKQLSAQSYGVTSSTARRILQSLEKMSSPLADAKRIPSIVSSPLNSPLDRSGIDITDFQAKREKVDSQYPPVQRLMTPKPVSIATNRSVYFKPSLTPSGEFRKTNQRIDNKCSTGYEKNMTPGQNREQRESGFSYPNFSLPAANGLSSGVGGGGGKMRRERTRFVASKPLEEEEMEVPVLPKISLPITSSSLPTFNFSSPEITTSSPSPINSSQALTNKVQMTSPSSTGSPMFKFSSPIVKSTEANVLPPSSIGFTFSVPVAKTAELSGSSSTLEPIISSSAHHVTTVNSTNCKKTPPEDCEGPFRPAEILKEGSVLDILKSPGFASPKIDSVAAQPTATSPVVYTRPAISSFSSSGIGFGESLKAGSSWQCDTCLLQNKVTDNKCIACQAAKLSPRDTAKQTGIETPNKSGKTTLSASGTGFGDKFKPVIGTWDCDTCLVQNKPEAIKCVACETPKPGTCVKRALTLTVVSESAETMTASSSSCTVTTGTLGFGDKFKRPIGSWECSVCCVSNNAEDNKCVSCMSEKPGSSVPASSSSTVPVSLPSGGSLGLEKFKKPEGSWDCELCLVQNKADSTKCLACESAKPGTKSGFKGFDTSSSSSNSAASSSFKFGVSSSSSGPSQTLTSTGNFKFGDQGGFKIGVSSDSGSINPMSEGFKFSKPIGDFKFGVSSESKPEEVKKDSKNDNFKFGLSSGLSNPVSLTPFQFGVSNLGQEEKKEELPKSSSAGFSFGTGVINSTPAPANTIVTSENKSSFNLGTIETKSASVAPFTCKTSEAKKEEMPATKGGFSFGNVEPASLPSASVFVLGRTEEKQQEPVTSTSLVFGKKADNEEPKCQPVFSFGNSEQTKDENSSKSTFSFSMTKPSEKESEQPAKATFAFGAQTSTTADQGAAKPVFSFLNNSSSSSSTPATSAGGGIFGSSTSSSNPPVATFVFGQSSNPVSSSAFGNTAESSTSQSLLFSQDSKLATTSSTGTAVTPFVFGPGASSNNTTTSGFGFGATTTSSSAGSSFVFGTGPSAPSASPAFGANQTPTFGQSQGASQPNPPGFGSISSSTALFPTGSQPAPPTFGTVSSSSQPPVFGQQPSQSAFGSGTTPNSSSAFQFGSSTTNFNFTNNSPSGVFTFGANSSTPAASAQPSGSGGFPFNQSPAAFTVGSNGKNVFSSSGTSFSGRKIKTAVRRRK
UniProt P12270: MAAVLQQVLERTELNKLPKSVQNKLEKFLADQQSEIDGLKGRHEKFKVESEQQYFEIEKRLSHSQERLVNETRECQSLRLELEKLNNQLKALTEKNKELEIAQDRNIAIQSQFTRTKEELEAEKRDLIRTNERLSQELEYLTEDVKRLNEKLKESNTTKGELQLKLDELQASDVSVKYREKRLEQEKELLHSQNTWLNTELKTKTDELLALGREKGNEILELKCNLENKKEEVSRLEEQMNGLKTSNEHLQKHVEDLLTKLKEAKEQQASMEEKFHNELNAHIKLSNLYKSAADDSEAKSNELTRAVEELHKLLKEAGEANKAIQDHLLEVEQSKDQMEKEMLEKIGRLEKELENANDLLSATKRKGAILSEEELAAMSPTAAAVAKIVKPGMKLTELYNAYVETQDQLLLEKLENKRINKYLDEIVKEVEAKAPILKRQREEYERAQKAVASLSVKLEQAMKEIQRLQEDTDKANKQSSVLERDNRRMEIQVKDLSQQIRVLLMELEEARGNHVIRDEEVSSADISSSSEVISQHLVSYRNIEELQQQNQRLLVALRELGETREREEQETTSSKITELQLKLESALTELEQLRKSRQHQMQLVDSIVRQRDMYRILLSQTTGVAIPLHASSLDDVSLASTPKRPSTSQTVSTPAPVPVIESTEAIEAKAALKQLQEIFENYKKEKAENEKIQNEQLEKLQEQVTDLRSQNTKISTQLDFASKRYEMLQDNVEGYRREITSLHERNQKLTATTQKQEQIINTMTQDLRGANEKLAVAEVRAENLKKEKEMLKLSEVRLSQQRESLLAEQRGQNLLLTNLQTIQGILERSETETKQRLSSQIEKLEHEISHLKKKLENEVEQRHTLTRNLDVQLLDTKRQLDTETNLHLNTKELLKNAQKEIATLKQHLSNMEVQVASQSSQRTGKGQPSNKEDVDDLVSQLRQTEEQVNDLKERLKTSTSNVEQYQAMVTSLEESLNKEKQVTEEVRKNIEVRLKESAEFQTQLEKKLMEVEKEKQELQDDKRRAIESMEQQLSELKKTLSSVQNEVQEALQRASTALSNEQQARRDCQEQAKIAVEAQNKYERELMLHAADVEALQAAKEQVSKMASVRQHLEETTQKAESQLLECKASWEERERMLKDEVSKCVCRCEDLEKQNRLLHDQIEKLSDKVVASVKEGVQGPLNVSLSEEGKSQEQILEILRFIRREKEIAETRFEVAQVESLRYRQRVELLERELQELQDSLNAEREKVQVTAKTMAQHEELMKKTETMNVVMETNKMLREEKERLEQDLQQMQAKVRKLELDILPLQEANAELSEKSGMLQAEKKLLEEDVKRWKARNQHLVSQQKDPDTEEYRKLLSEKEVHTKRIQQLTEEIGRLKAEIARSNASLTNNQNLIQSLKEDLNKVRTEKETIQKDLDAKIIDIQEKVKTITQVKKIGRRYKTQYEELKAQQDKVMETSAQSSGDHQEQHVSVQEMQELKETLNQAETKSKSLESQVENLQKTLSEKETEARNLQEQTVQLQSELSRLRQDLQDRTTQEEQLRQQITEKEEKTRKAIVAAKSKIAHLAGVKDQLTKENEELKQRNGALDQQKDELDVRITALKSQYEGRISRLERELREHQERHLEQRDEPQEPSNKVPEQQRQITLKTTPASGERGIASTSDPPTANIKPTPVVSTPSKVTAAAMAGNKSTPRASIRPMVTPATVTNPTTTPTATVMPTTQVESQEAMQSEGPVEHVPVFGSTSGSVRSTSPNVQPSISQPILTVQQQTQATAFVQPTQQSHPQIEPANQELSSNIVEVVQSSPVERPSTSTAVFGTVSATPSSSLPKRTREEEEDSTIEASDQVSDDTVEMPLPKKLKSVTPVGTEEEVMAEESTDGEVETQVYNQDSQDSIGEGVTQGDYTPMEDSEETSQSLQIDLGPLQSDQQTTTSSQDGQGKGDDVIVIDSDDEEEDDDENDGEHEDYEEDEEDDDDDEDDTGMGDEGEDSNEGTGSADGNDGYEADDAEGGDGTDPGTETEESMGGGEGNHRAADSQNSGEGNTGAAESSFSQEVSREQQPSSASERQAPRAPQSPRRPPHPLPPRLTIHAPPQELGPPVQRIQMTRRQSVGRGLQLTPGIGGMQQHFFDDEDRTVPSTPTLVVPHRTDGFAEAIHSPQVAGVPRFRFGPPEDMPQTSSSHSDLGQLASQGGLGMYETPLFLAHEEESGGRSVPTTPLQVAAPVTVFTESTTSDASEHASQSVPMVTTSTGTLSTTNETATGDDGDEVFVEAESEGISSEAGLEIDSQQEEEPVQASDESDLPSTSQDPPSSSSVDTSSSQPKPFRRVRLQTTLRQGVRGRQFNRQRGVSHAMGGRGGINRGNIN

In publication PMC10698503, “Phosphatase specificity principles uncovered by MRBLE:Dephos and global substrate identification” (Molecular Systems Biology, 2023):

Molecular target: B55α, N-terminal fusion to YFP, BioID or TurboID (UniProt P63151)
Test: affinity purification with mass spectrometry + proximity labelling; YFP-tagged B55α from nocodazole-arrested HeLa lysate on GFP-Trap beads, and BioID/TurboID fusions with biotin in cells; label-free LC-MS/MS; hit: at least twofold enrichment and P < 0.05 against the control

Substance	binding
Nup153 (from UniProt P49790 1-1475)	binds
TPR (from UniProt P12270 1-2363)	binds

Results are given in words; binding and its absence hold for the method and conditions named. Binding seen in cells or lysates may run through a third protein. These calls come from enrichment with a bait or labelling near it, and not all partners need be listed.
